From patent US20090238838 (published 2009)

Test: peptide made by a vendor
Conditions: conjugation step, reverse phase HPLC

Substance | final HPLC purity [%]
Des-Amino-Histidyl Exendin-4(Lys27)-Immunoglobulin Fc Conjugate | 95.8
Des-Amino-Histidyl-GLP-1 (Lys27)-Immunoglobulin Fc Conjugate | 91.9
